Values of other authors, collected in patent US20090221984A1 (priority 2008, published 2009).

Protein sequences, listed by entry. Tags and fused reporters are not part of them.
UniProt P05177, whole entry: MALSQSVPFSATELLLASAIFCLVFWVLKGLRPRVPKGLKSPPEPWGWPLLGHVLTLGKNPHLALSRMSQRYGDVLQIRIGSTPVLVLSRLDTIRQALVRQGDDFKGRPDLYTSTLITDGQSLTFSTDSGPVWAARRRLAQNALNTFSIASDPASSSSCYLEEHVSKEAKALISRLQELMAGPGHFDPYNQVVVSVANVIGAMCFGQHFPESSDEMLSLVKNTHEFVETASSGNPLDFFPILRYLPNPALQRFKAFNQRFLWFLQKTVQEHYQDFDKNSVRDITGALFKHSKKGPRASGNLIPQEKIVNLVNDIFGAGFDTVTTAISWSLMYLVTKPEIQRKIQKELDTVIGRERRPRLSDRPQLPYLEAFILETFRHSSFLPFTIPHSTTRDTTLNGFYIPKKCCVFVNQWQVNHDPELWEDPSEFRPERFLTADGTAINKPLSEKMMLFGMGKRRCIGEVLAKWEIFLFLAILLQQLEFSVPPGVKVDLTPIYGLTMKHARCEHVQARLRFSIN

Target: CYP1A2 (Homo sapiens, UniProt P05177)
Conditions: by CYP1A2 (minor extent CYP3A4) to monoethylglycinexylidide and glycinexylidide

## CCN(CC)CC(=O)Nc1c(C)cccc1C [Lidocaine]
  fraction metabolized in the liver: approximately 90%
